Experimental data published in PMC8039722.
No constants are given. Whether binding was seen depends on the method and setting. For part of these data: Binding seen in cells or lysates may run through a third protein. Some binding calls cover weakened binding; strength is not graded here. For part of these data: Where a sequence is shown, tags or fusion partners need not be part of it. Each block holds one molecule with its values, some of them ahead of it.

By UniProt entry, the sequences of proteins in these tests, tags left out. Where a name states a change or a piece, a line headed by the entry shows the natural chain unless it says otherwise. Residues count along the entry.
UniProt Q63472: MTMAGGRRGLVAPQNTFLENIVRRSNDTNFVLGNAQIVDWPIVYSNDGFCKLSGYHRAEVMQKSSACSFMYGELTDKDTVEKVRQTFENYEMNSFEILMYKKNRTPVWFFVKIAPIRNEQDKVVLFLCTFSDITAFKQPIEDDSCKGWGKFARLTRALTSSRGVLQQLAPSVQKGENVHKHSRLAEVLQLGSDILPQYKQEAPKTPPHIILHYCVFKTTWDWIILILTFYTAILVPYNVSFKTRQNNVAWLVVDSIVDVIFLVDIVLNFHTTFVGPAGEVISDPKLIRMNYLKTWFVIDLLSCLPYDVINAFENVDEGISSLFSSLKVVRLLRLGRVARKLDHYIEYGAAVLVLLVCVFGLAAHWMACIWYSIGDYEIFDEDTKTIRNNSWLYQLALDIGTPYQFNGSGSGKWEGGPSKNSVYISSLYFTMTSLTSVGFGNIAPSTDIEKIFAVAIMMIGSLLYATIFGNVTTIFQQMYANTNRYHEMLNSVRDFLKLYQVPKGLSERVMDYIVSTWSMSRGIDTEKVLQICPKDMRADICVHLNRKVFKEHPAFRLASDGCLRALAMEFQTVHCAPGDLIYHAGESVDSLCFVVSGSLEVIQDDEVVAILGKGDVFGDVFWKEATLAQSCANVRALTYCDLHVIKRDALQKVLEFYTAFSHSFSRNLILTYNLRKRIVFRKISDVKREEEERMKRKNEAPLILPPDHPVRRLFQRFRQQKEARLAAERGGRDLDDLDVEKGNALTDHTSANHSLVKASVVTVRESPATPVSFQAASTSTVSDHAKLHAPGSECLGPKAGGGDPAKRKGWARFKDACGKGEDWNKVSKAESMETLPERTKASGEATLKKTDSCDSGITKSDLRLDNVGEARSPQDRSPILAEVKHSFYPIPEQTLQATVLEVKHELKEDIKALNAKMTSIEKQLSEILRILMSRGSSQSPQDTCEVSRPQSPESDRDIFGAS
cytoplasmic C-terminal region (amino acids 493-962) of rat Eag1, two-hybrid bait: residues 493-962 of Q63472

Key:
[1] = target: T1, GST fusion protein encoding the C-terminal region (amino acids 355-481) of the MKRN1 long isoform (rat); test: pull-down; GST fusion protein on glutathione-agarose beads (4-8 μg) incubated overnight at 4 °C with rat brain lysates (crude membrane fractions); immunoblot with anti-Eag1; only the target purified
T1 sequence: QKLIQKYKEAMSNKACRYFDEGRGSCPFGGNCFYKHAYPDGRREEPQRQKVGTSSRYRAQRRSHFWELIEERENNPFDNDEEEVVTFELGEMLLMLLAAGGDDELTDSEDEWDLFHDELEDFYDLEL

[2] = target: cytoplasmic C-terminal region (amino acids 493-962) of rat Eag1, two-hybrid bait (rat) (UniProt Q63472); test: two-hybrid; yeast two-hybrid screening of a rat brain cDNA library with the cytoplasmic C-terminal region (amino acids 493-962) of rat Eag1 as the bait

binding [1]: binds
Molecule: endogenous Eag1 (from UniProt Q63472 1-962)

binding [2]: binds
B1: rat MKRN1 two-hybrid clone (amino acids 355-481 of the long isoform) (domain or fragment, UniProt A0A0G2QC40 355-481)
chain: T1 sequence

binding [2]: binds
B2: rat MKRN1 two-hybrid clone (amino acids 142-481 of the long isoform) (domain or fragment, UniProt A0A0G2QC40 142-481)
chain: AEMNPGEAESRNPNFPTVGAGSEDWVNAIEFVPGQPYCGRTAPSCTEVPLQGSVTKEESEKEPTTVETEKQLCPYAAVGECRYGENCVYLHGDSCDMCGLQVLHPMDAAQRSQHIKSCIEAHEKDMELSFAVQRSKDMVCGICMEVVYEKANPSERRFGILSNCNHTYCLKCIRKWRSAKQFESKIIKSCPECRITSNFVIPSEYWVEEKEEKQKLIQKYKEAMSNKACRYFDEGRGSCPFGGNCFYKHAYPDGRREEPQRQKVGTSSRYRAQRRSHFWELIEERENNPFDNDEEEVVTFELGEMLLMLLAAGGDDELTDSEDEWDLFHDELEDFYDLEL
